Test results: PubChem BioAssay AID1347423 (Functional Genomics Laboratory (NCATS/FGL), 2020)
The campaign covered roughly 52,000 sequences. About 210 (0.4%) were called active.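 How the source made its calls: active means gene whose silencing raises cell survival under the drug, median off-target-corrected z-score across its silencing RNAs 2 or more; inactive means the rest.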 The list shows a part of the results.

assay: Resistance to Poly (ADP-Ribose) Polymerase inhibitor: Gene Identification via Genome-wide siRNA Screen; conditions: mouse BRCA2 R2336H ES cells, olaparib, CellTiter-Glo viability; hits give high values
In short: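 Mouse BRCA2 R2336H ES cells were reverse-transfected with siRNA (20 nM final), treated at 48 h with 500 nM olaparib, and read by CellTiter-Glo after 72 h. Scores: MAD-based z per siRNA, median per gene, seed off-target correction.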

Sequence	z-score
GCAGACUUUGUUUGACAACTT against Hip1	inactive: 0.237
GCAGCGUAAACAUUGUAACTT against Pkib	inactive: 0.423
GCGGACACAUCGAGUUUUGTT against Epor	inactive: -0.473
GGAGGGUACUGUUAUUUUUTT against Defb9	inactive: 1.37
GGUAUCAGUAGCUGAUGUGTT against Pde8a	inactive: -1.17
GAGGCUGUCUGCUUCAUCCTT against Mrps12	inactive: -0.000859
CCAACUGGUAAUCUUCACATT against Olfr3	inactive: 0.849
GCUUAUGUUGUUGUGCAUUTT against Zfyve21	inactive: 0.123
GCUCUCGGAAUGAUUUAUATT against Acas2l	inactive: 0.157
GCCAAAUGACCUUCAGUGUTT against Klk24	inactive: -0.893
CCUAUUUUCUAUGUUGCCUTT against Cnil	inactive: 0.342
GCCAUCGUGAGAAGACUUCTT against Nt5c3	inactive: -0.307
CCUCAUCGAAUUCGAUACCTT against Arrb2	inactive: 1.25
GGAUGACUGGAACUUCCUCTT against Kcnk1	inactive: 1.66
GCCCAUGACAUUCUCCAUUTT against Cdh17	inactive: 0.695
GGAACAGCUCAACACAAGATT against Adam11	inactive: 0.454
GGCAUCCCUCUAGAGAACATT against Erbb2ip	inactive: 0.358
GGCUCUAUAUCUAUACUGATT against Srst	inactive: -0.528
CCGGAUUCGAGAGGUGAUGTT against 4930413P14Rik	inactive: -1.58
GGUGGUUGCCUUUAUGAAGTT against 8430420C20Rik	inactive: 0.98
GGUUUUAGUAUGUAGUGUUTT against Pxt1	inactive: 0.485
GGAAAGGGACCAAUUCAGATT against Fv1	inactive: 0.00626
UCAUUCUACCUGGAACCGGTT against Gm691	inactive: -1.71
CCUAUGAAGCAAUUUGAUCTT against Lnx2	inactive: 0.81
GCUUCAUUUGUGCCUCUAUTT against 4932417H02Rik	inactive: -0.443
GGCGACUUGUGCCUAACUUTT against LOC406217	inactive: 1.49
CGACAUCAAAUACGGAUCUTT against Sdf2l1	inactive: -0.322
CCAGCUUAAUGAGUUCAUGTT against Abca7	inactive: -0.525
GCAUGAGACUAUGCACCUATT against Snca	inactive: -0.183

5 neighbouring records out of the list so far:
Sequence	z-score
GGCUCUAUAUCUAUACUGATT against Srst	inactive: -0.528
CCGGAUUCGAGAGGUGAUGTT against 4930413P14Rik	inactive: -1.58
GGUGGUUGCCUUUAUGAAGTT against 8430420C20Rik	inactive: 0.98
GGUUUUAGUAUGUAGUGUUTT against Pxt1	inactive: 0.485
GGAAAGGGACCAAUUCAGATT against Fv1	inactive: 0.00626
